The list does not hold the whole screen: it is rich in T/C values a quarter to a half above the control, in often repeated tests (any T/C) and in doses without a T/C. Other doses and runs of a compound stand elsewhere. T/C is the treated group as % of the vehicle group. Some entries give survivors of the animals treated and no T/C: the source files T/C as zero there, which appears to mark a toxic dose or a test without result, not a measured value. Some doses without a T/C left all or most animals alive at the check, yet need not have been tolerated: the source hardly ever lists a survival T/C far under the control, and the zero likely stands for such cases as well. Counts of survivors are from the toxicity check (mostly the fifth day) where no day follows; animals may have died later. Schedule codes are those of the source, read here as Q, the interval in days (D) or hours (H), X, the number of doses. Some doses were run more than once; the values are given in rising order. For survival time, the PubChem record calls one and a half times the control and up active, and a quarter to a half above the control has no call in these data; cut-offs in other NCI protocols can differ. Some T/C values are followed by the survivors on the day toxicity was checked, most often the fifth; without a count, all were alive then.
Test system: L1210 leukemia ip in BDF1 mice, survival T/C
Assay: NCI In Vivo Anticancer Drug Screen. Data for tumor model L1210 Leukemia (intraperitoneal) in B6D2F1 (BDF1) mice
Conditions: higher T/C = longer survival
[1] = T/C endpoint: mean survival time, dose: 160.0 mg/kg/injection, schedule: Q01DX009 (ip), vehicle: saline
[2] = T/C endpoint: mean survival time, dose: 320.0 mg/kg/injection, schedule: Q01DX009 (ip), vehicle: saline
[3] = T/C endpoint: mean survival time, dose: 400.0 mg/kg/injection, schedule: Q01DX001 (ip), vehicle: saline
[4] = T/C endpoint: mean survival time, dose: 25.0 mg/kg/injection, schedule: Q01DX009 (ip), vehicle: saline
[5] = T/C endpoint: mean survival time, dose: 200.0 mg/kg/injection, schedule: Q01DX009 (ip), vehicle: saline
[6] = T/C endpoint: mean survival time, dose: 400.0 mg/kg/injection, schedule: Q01DX009 (ip), vehicle: saline

## C/C(=N/N=C(N)N)c1ccc(NC(=O)Nc2ccc(/C(C)=N/N=C(N)N)cc2)cc1
T/C endpoint: mean survival time, dose: 8.0 mg/kg/injection, schedule: Q03HX008 (ip), vehicle: other
  survivor count: 5 of 10
T/C endpoint: mean survival time, dose: 16.0 mg/kg/injection, schedule: Q01DX005 (iv), vehicle: other
  survivor count: 0 of 10
T/C endpoint: mean survival time, dose: 16.0 mg/kg/injection, schedule: Q03HX008 (ip), vehicle: other
  survivor count: 6 of 10
T/C endpoint: mean survival time, dose: 16.0 mg/kg/injection, schedule: Q03HX016 (ip), vehicle: other
  survivor count: 4 of 10
T/C endpoint: mean survival time, dose: 20.0 mg/kg/injection, schedule: Q01DX009 (ip), vehicle: saline
  T/C: 124, 140, 145, 149 % of control
T/C endpoint: mean survival time, dose: 32.0 mg/kg/injection, schedule: Q01DX005 (iv), vehicle: other
  survivor count: 0 of 10
T/C endpoint: mean survival time, dose: 32.0 mg/kg/injection, schedule: Q03HX008 (ip), vehicle: other
  survivor count: 0 of 10
T/C endpoint: mean survival time, dose: 32.0 mg/kg/injection, schedule: Q03HX016 (ip), vehicle: other
  survivor count: 0 of 10
T/C endpoint: mean survival time, dose: 40.0 mg/kg/injection, schedule: Q01DX009 (ip), vehicle: saline
  T/C: 142, 144, 161, 188 % of control
T/C endpoint: mean survival time, dose: 64.0 mg/kg/injection, schedule: Q01DX001 (iv), vehicle: other
  survivor count: 0 of 10
T/C endpoint: mean survival time, dose: 64.0 mg/kg/injection, schedule: Q01DX005 (ip), vehicle: other
  survivor count: 0 of 10
T/C endpoint: mean survival time, dose: 64.0 mg/kg/injection, schedule: Q01DX005 (iv), vehicle: other
  survivor count: 0 of 10
T/C endpoint: mean survival time, dose: 64.0 mg/kg/injection, schedule: Q01DX009 (ip), vehicle: other
  survivor count: 1 of 10
T/C endpoint: mean survival time, dose: 64.0 mg/kg/injection, schedule: Q03HX008 (ip), vehicle: other
  survivor count: 0 of 10
T/C endpoint: mean survival time, dose: 64.0 mg/kg/injection, schedule: Q03HX016 (ip), vehicle: other
  survivor count: 0 of 10
T/C endpoint: mean survival time, dose: 80.0 mg/kg/injection, schedule: Q01DX009 (ip), vehicle: saline
  T/C: 178, 181, 217, 280 % of control [5 of 6 alive]
T/C endpoint: mean survival time, dose: 128.0 mg/kg/injection, schedule: Q01DX001 (ip), vehicle: other
  survivor count: 1 of 10
T/C endpoint: mean survival time, dose: 128.0 mg/kg/injection, schedule: Q01DX001 (iv), vehicle: other
  survivor count: 0 of 10
T/C endpoint: mean survival time, dose: 128.0 mg/kg/injection, schedule: Q01DX005 (ip), vehicle: other
  survivor count: 0 of 10
T/C endpoint: mean survival time, dose: 128.0 mg/kg/injection, schedule: Q01DX005 (iv), vehicle: other
  survivor count: 0 of 10
T/C endpoint: mean survival time, dose: 128.0 mg/kg/injection, schedule: Q01DX009 (ip), vehicle: other
  survivor count: 0 of 10
T/C endpoint: mean survival time, dose: 128.0 mg/kg/injection, schedule: Q03HX008 (ip), vehicle: other
  survivor count: 0 of 10
T/C endpoint: mean survival time, dose: 128.0 mg/kg/injection, schedule: Q03HX016 (ip), vehicle: other
  survivor count: 0 of 10
T/C endpoint: mean survival time, dose: 128.0 mg/kg/injection, schedule: Q04DX003 (ip), vehicle: other
  survivor count: 0 of 10
T/C endpoint: mean survival time, dose: 128.0 mg/kg/injection, schedule: Q08DX002 (ip), vehicle: other
  survivor count: 1 of 10
T/C endpoint: mean survival time, dose: 147.0 mg/kg/injection, schedule: Q01DX009 (ip), vehicle: water
  survivor count: 5 of 10
[1]
  T/C: 94 [5 of 6 alive] and 206 % of control [4 of 6 alive]
  survivor count: 0 of 6 and 2 of 6
T/C endpoint: mean survival time, dose: 245.0 mg/kg/injection, schedule: Q01DX009 (ip), vehicle: water
  survivor count: 6 of 10
T/C endpoint: mean survival time, dose: 256.0 mg/kg/injection, schedule: Q01DX001 (ip), vehicle: other
  survivor count: 0 of 10
T/C endpoint: mean survival time, dose: 256.0 mg/kg/injection, schedule: Q01DX001 (iv), vehicle: other
  survivor count: 0 of 10
T/C endpoint: mean survival time, dose: 256.0 mg/kg/injection, schedule: Q01DX005 (ip), vehicle: other
  survivor count: 0 of 10
T/C endpoint: mean survival time, dose: 256.0 mg/kg/injection, schedule: Q01DX005 (iv), vehicle: other
  survivor count: 0 of 10
T/C endpoint: mean survival time, dose: 256.0 mg/kg/injection, schedule: Q01DX009 (ip), vehicle: other
  survivor count: 0 of 10
T/C endpoint: mean survival time, dose: 256.0 mg/kg/injection, schedule: Q04DX003 (ip), vehicle: other
  survivor count: 0 of 10
T/C endpoint: mean survival time, dose: 256.0 mg/kg/injection, schedule: Q08DX002 (ip), vehicle: other
  survivor count: 0 of 10
[2]
  T/C: 191 % of control [4 of 6 alive]
  survivor count: 2 of 6 and 3 of 6
T/C endpoint: mean survival time, dose: 512.0 mg/kg/injection, schedule: Q01DX001 (ip), vehicle: other
  survivor count: 0 of 10
T/C endpoint: mean survival time, dose: 512.0 mg/kg/injection, schedule: Q01DX001 (iv), vehicle: other
  survivor count: 0 of 10
T/C endpoint: mean survival time, dose: 512.0 mg/kg/injection, schedule: Q04DX003 (ip), vehicle: other
  survivor count: 1 of 10
T/C endpoint: mean survival time, dose: 512.0 mg/kg/injection, schedule: Q08DX002 (ip), vehicle: other
  survivor count: 2 of 10
T/C endpoint: mean survival time, dose: 1024.0 mg/kg/injection, schedule: Q01DX001 (ip), vehicle: other
  survivor count: 1 of 10
T/C endpoint: mean survival time, dose: 1024.0 mg/kg/injection, schedule: Q01DX001 (iv), vehicle: other
  survivor count: 0 of 10
T/C endpoint: mean survival time, dose: 1024.0 mg/kg/injection, schedule: Q04DX003 (ip), vehicle: other
  survivor count: 0 of 10
T/C endpoint: mean survival time, dose: 1024.0 mg/kg/injection, schedule: Q08DX002 (ip), vehicle: other
  survivor count: 0 of 10
T/C endpoint: median survival time, dose: 30.0 mg/kg/injection, schedule: Q03HX024 (ip), vehicle: water
  survivor count: 0 of 8
T/C endpoint: median survival time, dose: 45.0 mg/kg/injection, schedule: Q03HX024 (ip), vehicle: water
  survivor count: 0 of 8

## c1ccc(CNc2cnccn2)cc1
[3]
  survivor count: 2 of 4

## N=C(N)SC1c2ccccc2-c2cc([N+](=O)[O-])ccc21 (centres undefined)
T/C endpoint: mean survival time, dose: 400.0 mg/kg/injection, schedule: Q01DX005 (ip), vehicle: Klucel (hydroxypropylcellulose) (HPC)
  survivor count: 3 of 3
T/C endpoint: mean survival time, dose: 400.0 mg/kg/injection, schedule: Q04DX002 (ip), vehicle: Klucel (hydroxypropylcellulose) (HPC)
  survivor count: 0 of 3

## CN(C)C(=N)[Se]
[4]
  survivor count: 2 of 6
T/C endpoint: mean survival time, dose: 100.0 mg/kg/injection, schedule: Q01DX009 (ip), vehicle: saline
  survivor count: 0 of 6
[5]
  survivor count: 0 of 6
[6]
  survivor count: 0 of 6

## NNC(=O)c1cccnc1
T/C endpoint: mean survival time, dose: 200.0 mg/kg/injection, schedule: Q01DX001 (ip), vehicle: saline
  survivor count: 2 of 6
[5]
  survivor count: 0 of 6
[3]
  survivor count: 0 of 6
[6]
  survivor count: 0 of 6

## COC1=CC23CCNC(Cc4ccc(OC)c(O)c42)C3=CC1 (centres undefined)
T/C endpoint: mean survival time, dose: 20.0 mg/kg/injection, schedule: Q01DX001 (ip), vehicle: saline
  survivor count: 2 of 6
T/C endpoint: mean survival time, dose: 40.0 mg/kg/injection, schedule: Q01DX001 (ip), vehicle: saline
  survivor count: 0 of 6
T/C endpoint: mean survival time, dose: 75.0 mg/kg/injection, schedule: Q01DX001 (ip), vehicle: saline
  survivor count: 0 of 6
T/C endpoint: mean survival time, dose: 150.0 mg/kg/injection, schedule: Q01DX001 (ip), vehicle: saline
  survivor count: 0 of 6
T/C endpoint: mean survival time, dose: 300.0 mg/kg/injection, schedule: Q01DX001 (ip), vehicle: saline
  survivor count: 0 of 6

## CCOC(=O)CCC(NC(=O)c1cc(Cl)c(N(CC)Cc2cnc3nc(N)nc(N)c3n2)c(Cl)c1)C(=O)OCC (centres undefined)
T/C endpoint: mean survival time, dose: 50.0 mg/kg/injection, schedule: Q01DX009 (ip), vehicle: Klucel (hydroxypropylcellulose) (HPC)
  T/C: 137 % of control
T/C endpoint: mean survival time, dose: 100.0 mg/kg/injection, schedule: Q01DX009 (ip), vehicle: Klucel (hydroxypropylcellulose) (HPC)
  survivor count: 3 of 3

## CCN1C(=O)CC2(CCN(C)CC2)C1=O
[4]
  T/C: 130 % of control [5 of 6 alive]
[5]
  survivor count: 0 of 6 and 6 of 6
[6]
  survivor count: 0 of 6

## CCCCCCCC(C(=O)O)C(CCCCCCC)C(=O)O (centres undefined)
[4]
  survivor count: 6 of 6
T/C endpoint: mean survival time, dose: 50.0 mg/kg/injection, schedule: Q04DX003 (ip), vehicle: saline
  survivor count: 2 of 6
T/C endpoint: mean survival time, dose: 100.0 mg/kg/injection, schedule: Q04DX003 (ip), vehicle: saline
  survivor count: 1 of 6
T/C endpoint: mean survival time, dose: 200.0 mg/kg/injection, schedule: Q04DX003 (ip), vehicle: saline
  survivor count: 1 of 6
T/C endpoint: mean survival time, dose: 400.0 mg/kg/injection, schedule: Q04DX003 (ip), vehicle: saline
  survivor count: 2 of 6

Source: PubChem BioAssay AID248 (DTP/NCI, 2004)
